# Screening data, single-dose tests

The chains behind the UniProt entries cited, without tags or fusion partners.
UniProt P9WPC5, whole entry: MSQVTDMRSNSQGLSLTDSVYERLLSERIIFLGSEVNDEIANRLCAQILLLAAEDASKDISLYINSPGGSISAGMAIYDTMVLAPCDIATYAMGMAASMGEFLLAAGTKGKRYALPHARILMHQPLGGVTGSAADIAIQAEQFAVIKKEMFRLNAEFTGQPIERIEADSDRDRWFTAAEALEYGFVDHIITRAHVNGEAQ
UniProt P9WPC3, whole entry partner: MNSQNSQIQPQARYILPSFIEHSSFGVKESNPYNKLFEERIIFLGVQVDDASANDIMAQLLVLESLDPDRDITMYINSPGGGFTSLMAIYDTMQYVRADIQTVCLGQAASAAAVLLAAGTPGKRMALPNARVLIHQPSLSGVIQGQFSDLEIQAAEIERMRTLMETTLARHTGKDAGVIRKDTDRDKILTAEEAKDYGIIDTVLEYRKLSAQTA

Measurements from “University of Dundee, Small-Polar-MMV Screening Library” (2021), ChEMBL document CHEMBL3988442.

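ClpP1P2, Mycobacterium tuberculosis (UniProt P9WPC5 and UniProt P9WPC3). Protease assay of ClpP1P2, read by the AMC dye that it sets free. Compounds at 50 µM. Higher reads as stronger inhibition, judged from the few compounds that gave an IC50. Most other retested compounds had strongly negative values. Size under these conditions: about 69,000 compounds, about 10 of them at 50% or above in at least one test.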

The filed quantity is “Percent Effect” (%). How 0% and 100% were set is not recorded. Most values in the screen are low, and negative values occur. Compounds were drawn at random from those tested, without regard to their results.

Compound: COc1ccc(Br)c(NC(=O)NCc2ncnn2C)c1
percent effect: -0.9643

Compound: O=C(c1ccc2[nH]ccc2c1)N1CCn2cnc(COCC3CC3)c2C1
percent effect: -6.55

Compound: CC(C)(NC(=O)C1CCCN(C2CCCC2)C1)c1nnc(N)s1 (centres undefined)
percent effect: -5.437

Compound: Cc1ccc(O)c(CNc2cccc(CN3CCSCC3)c2)n1
percent effect: -22.06

Compound: CCOc1cc(CNc2cc(-c3nc(C)no3)ccn2)ccc1OC
percent effect: 2.733

Compound: Cc1ccc(NC2CCN(C(=O)c3ccc(Cl)o3)CC2)nn1
percent effect: 1.932

Compound: COc1ccc(C)cc1C(=O)NC(CC(=O)O)c1cccs1 (centres undefined)
percent effect: 2.793

Compound: CCOC(=O)CNC(=O)C1OC(c2ccccc2)=NN1C(C)=O (centres undefined)
percent effect: 11.76

Compound: O=C(NC1CCN(c2cc(-n3ccnc3)ncn2)CC1)c1ccncc1
percent effect: -3.727

Compound: O=C(c1ccc(CN2CCCCC2)cc1)N1CCCC1c1cccs1 (centres undefined)
percent effect: -2.49

Compound: CC(C)COCCNC(=O)NC1CCCN(c2cnn(C)c2)C1 (centres undefined)
percent effect: -6.308

Compound: Cc1cc(CCC(=O)O)nc(C2CCCN2c2ccnc(C)n2)n1 (centres undefined)
percent effect: -2.558

Compound: O=C(c1c[nH]nn1)N1CCCC1C1CCCCC1 (centres undefined)
percent effect: -4.152

Compound: Fc1cccc(-c2c[nH]c([C@@H]3COCCN3C3CCOCC3)n2)c1
percent effect: 3.415

Compound: O=C(CCN1CCCC1=O)Nc1cnn(-c2ccccc2Cl)c1
percent effect: -20.5

Compound: c1cncc(OC[C@]23COC[C@H]2CN(Cc2nccs2)C3)c1
percent effect: -2.171

Compound: Cc1cccc(-c2nccnc2C2CCCN(C)C2)c1 (centres undefined)
percent effect: -16.98

Compound: Cc1oc(-c2ccoc2)nc1CN1CCCCC1CCc1ccccc1 (centres undefined)
percent effect: -12.94

Compound: CNC(=O)C1CCCCN1C(=O)c1csc(-c2ccccc2)n1 (centres undefined)
percent effect: 0.6411

Compound: COc1cc(C)c(CN2CCc3nc4ccsc4c(=O)n3CC2)cc1C
percent effect: -10.67

Compound: CCN(CC)C1CCN(c2ncnc3c2CCN(C(=O)C2CC2)C3)C1 (centres undefined)
percent effect: -9.412

Compound: Cc1oc(-c2ccco2)nc1CC(=O)NCC(C)(C)N(C)C
percent effect: -11.15

Compound: COCCC1(CNC(=O)NC2CCCN(C)C2)CC1 (centres undefined)
percent effect: -2.229

Compound: CNC(=O)C1CN(C(=O)COc2ccccc2)Cc2cn(C)nc21 (centres undefined)
percent effect: -9.879

Compound: Cc1cnc(-c2nc(O)c3c(n2)CN(C(=O)C2CCOC2)CC3)cn1 (centres undefined)
percent effect: -23.48

Compound: CCN(CC)C(=O)c1ccc(NC(=O)CNc2ccc(F)cc2Cl)cc1
percent effect: 0.08739

Compound: COc1ccc(C(C(=O)O)N2CCN(C3CCCC3)CC2)cc1C (centres undefined)
percent effect: -0.1514

Compound: CCN(C)c1ccc(CNC(=O)c2ccc(NC(N)=O)cc2)cc1F
percent effect: -0.4969

Compound: CC(=O)NC1CCCc2c1[nH]c1ccc(F)cc21 (centres undefined)
percent effect: -4.022

Compound: CCN(CCNC(=O)c1ccccc1OCCOC)C1CC1
percent effect: 14

Compound: CS(=O)(=O)NC1CCCN(C(=O)NCc2cccnc2)C1 (centres undefined)
percent effect: 9.305

Compound: CCn1ncc2c1CCCC2NCc1ccc(OC)c(C)c1 (centres undefined)
percent effect: -0.4276

Compound: N#CCCN(CC1CCCO1)C(=O)c1ccsc1 (centres undefined)
percent effect: -4.515

Compound: Clc1nc2ccccn2c1CNCC1CN(C2CC2)CCO1 (centres undefined)
percent effect: 5.12

Compound: Cc1cc(C(=O)NC(CC(C)C)C(=O)Nc2cc[nH]n2)c(C)o1 (centres undefined)
percent effect: -28.41

Compound: COc1cccc(C(O)CN2CCN(C(=O)CCC(C)C)CC2)c1 (centres undefined)
percent effect: -2.607

Compound: CN(C)CC(=O)N1CCCC1c1ccccn1 (centres undefined)
percent effect: -8.98

Compound: N#Cc1cccc(OCCCN2CCN(C(=O)c3ccoc3)CC2)c1
percent effect: -4.503

Compound: O=C(CSc1nnc2n1N=CN(c1ccccc1)C2)c1ccccc1
percent effect: -12.11

The last 5 entries again:

* Cc1cc(C(=O)NC(CC(C)C)C(=O)Nc2cc[nH]n2)c(C)o1 (centres undefined) | -28.41%
* COc1cccc(C(O)CN2CCN(C(=O)CCC(C)C)CC2)c1 (centres undefined) | -2.607%
* CN(C)CC(=O)N1CCCC1c1ccccn1 (centres undefined) | -8.98%
* N#Cc1cccc(OCCCN2CCN(C(=O)c3ccoc3)CC2)c1 | -4.503%
* O=C(CSc1nnc2n1N=CN(c1ccccc1)C2)c1ccccc1 | -12.11%